Where two headings read alike, the source gives them in different places.
System: P. berghei ookinete development
[1] = unified cytotox / IC50, <10-fold red, >10-fold green

SMILES | Assay tox ratio Pb ODA | Assay tox ratio Pb ODA (red: <10-fold selectivity; green: >10-fold) | other results
CCN(CC)c1ccccc1CNC(=O)c1cc(Cl)c(N)cc1OC [TCMDC-131416] | 31.65 | – | –
CCOC(=O)c1c(-c2ccccc2)nc2c(sc3ccccc32)c1O [TCMDC-131540] | 76.29 | – | –
CC(ON1C(N)=NC(N)=NC1(C)C)c1ccccc1 (stereo not shown) [TCMDC-131596] | – | – | Assay tox ratio Pb ODA [1]: 0.00716
Br.CC(CON1C(N)=NC(N)=NC1(C)C)c1ccc(Cl)cc1Cl (stereo not shown) [TCMDC-131687] | – | – | Assay tox ratio Pb ODA [1]: 0.000475
CC1(C)N=C(N)N=C(N)N1OCCCc1ccccc1.Cl [TCMDC-131689] | – | – | Assay tox ratio Pb ODA [1]: 0.000393
Br.CCC(ON1C(N)=NC(N)=NC1(C)C)c1ccc(Cl)cc1 (stereo not shown) [TCMDC-131709] | – | 0.00157 | –
CC1(C)NC(N)=NC(=N)N1OCOc1ccc(Cl)cc1.Cl [TCMDC-131734] | – | 0.03 | –
CC[C@H]1CN2CCc3cc(OC)c(OC)cc3[C@@H]2C[C@@H]1C[C@H]1NCCc2c1cc(OC)c(O)c2Cl [TCMDC-131802] | – | 16.86 | –
Br.CC[C@H]1CN2CCc3cc(OC)c(OC)cc3[C@@H]2C[C@@H]1C[C@H]1NCCc2c1cc(OC)c(O)c2I [TCMDC-131829] | – | 13.20 | –
CC[C@@]1(O)C(=O)OCc2c1cc1n(c2=O)Cc2c-1nc1cc3c(cc1c2CN1CCN(C)CC1)OCCO3.Cl [TCMDC-131875] | 0.53 | – | –
CC[C@@]1(O)C(=O)OCc2c1cc1n(c2=O)Cc2c-1nc1cc3c(cc1c2CN1CCOCC1)OCO3.O=C(O)C(F)(F)F [TCMDC-131876] | 0.37 | – | –
Nc1nc(N)c2c(ccc3c2cnn3Cc2cccnc2)n1 [TCMDC-131932] | – | 0.023 | –
COc1ccc(Cn2ncc3c4c(N)nc(N)nc4ccc32)cc1OC [TCMDC-131934] | – | 0.0014 | –
CCCCCCCc1cc(=O)c2ccccc2[nH]1 [TCMDC-132026] | – | 18.19 | –
Nc1c2ccccc2nc2ccc(Cl)cc12 [TCMDC-132029] | 9.24 | – | –
CCc1c(CCNCCCCCCNCCc2ccc([N+](=O)[O-])cc2)ccc(OC)c1OC.Cl [TCMDC-132066] | 0.83 | – | –
COc1ccc(C23Oc4cc(OC)cc(OC)c4C2(O)C2(CC3c3ccccc3)SCCCS2)cc1 (stereo not shown) [TCMDC-132098] | 249.66 | – | –
COc1ccc(-c2ccc([N+](=O)[O-])cc2C(=O)NCC(C)Oc2ccc(C(F)(F)F)cc2)cc1 (stereo not shown) [TCMDC-132304] | 24.94 | – | –
Cc1[nH]c(C)c(-c2ccc(-c3ccc(OCC(F)(F)F)cc3)nc2)c(=O)c1Cl [TCMDC-132306] | – | – | Assay tox ratio Pb ODA [1]: 80.43
Cc1[nH]c(C)c(-c2ccc(-c3ccc(C(F)F)cc3)nc2)c(=O)c1Cl [TCMDC-132329] | – | – | Assay tox ratio Pb ODA [1]: 12.83
Cc1noc(C)c1-c1cccc(CNCc2ccc(-c3cccc(-c4nc5cc(F)ccc5[nH]4)c3)cc2)c1.O=C(O)C(F)(F)F [TCMDC-133060] | 1.13 | – | –
Cc1noc(C)c1-c1cccc(CNCc2ccc(-c3ccc(-c4nc5cccc(C)c5[nH]4)cc3)cc2)c1.O=C(O)C(F)(F)F [TCMDC-133061] | 2.98 | – | –
Cc1cc(=O)c(-c2ccc(Oc3cccc(C(F)(F)F)c3)cc2)c(C)[nH]1 [TCMDC-133308] | – | 19.71 | –
COc1cc(-c2cc(-c3ccc(S(C)(=O)=O)cc3)cnc2N)ccc1O [TCMDC-133343] | 23.53 | – | –
COc1ccc(-c2cnc(N)c(-c3ccc(C(N)=O)cc3)c2)cc1OC [TCMDC-133349] | 234.49 | – | –

SMILES | Assay tox ratio Pb ODA | Assay tox ratio Pb ODA (red: <10-fold selectivity; green: >10-fold) | other results
O=C(Nc1ccc(OC2CCN(Cc3ccc(F)cc3)CC2)c(Cl)c1)c1cccs1.O=C(O)C(F)(F)F [TCMDC-133746] | – | 33.41 | –
O=C(Nc1ccc(OC2CCN(Cc3ccc(F)cc3)C2)c(Cl)c1)c1cccs1.O=C(O)C(F)(F)F (stereo not shown) [TCMDC-133757] | 13.16 | – | –
O=C(Nc1ccc(OC2CCN(Cc3ccc(F)cc3)C2)c(Cl)c1)c1ccc(F)cc1.O=C(O)C(F)(F)F (stereo not shown) [TCMDC-133763] | 8.33 | – | –
CNC(=O)c1ccccc1Nc1nc(Nc2ccc(CCN3CCN(C)CC3)cc2)ncc1Cl.Cl [TCMDC-133800] | – | 0.98 | –
Cc1cccc2nc(-c3ccc(-c4ccc(CN5CC(C)OC(C)C5)cc4)cc3)[nH]c12.O=C(O)C(F)(F)F (stereo not shown) [TCMDC-133823] | – | 34.91 | –
Cc1cccc2nc(-c3ccc(-c4ccc(CN5CCOCC5)cc4)cc3)[nH]c12.O=C(O)C(F)(F)F [TCMDC-133825] | – | 43.40 | –
Cc1cccc2nc(-c3ccc(-c4ccc(CN5CCCC(O)C5)cc4)cc3)[nH]c12.O=C(O)C(F)(F)F (stereo not shown) [TCMDC-133826] | – | 1.39 | –
CC1CN(Cc2ccc(-c3ccc(-c4nc5ccccc5[nH]4)cc3)cc2)CC(C)O1.O=C(O)C(F)(F)F (stereo not shown) [TCMDC-133828] | – | 34.80 | –
CC1CN(Cc2ccc(-c3ccc(-c4nc5cc(F)ccc5[nH]4)cc3)cc2)CC(C)O1.O=C(O)C(F)(F)F (stereo not shown) [TCMDC-133831] | – | 20.81 | –
N#Cc1ccc(CN2CCC(Oc3ccc(NC(=O)c4cccs4)cc3Cl)CC2)cc1.O=C(O)C(F)(F)F [TCMDC-133955] | – | 8.33 | –
CC(C)CCN1CCC(Oc2ccc(NC(=O)c3cccs3)cc2Cl)CC1.O=C(O)C(F)(F)F [TCMDC-133974] | – | 14.77 | –
Cc1cc(Nc2ncc(C#N)c(Nc3ccccc3C(N)=O)n2)ccc1N1CCN(C)CC1.Cl [TCMDC-134115] | – | – | Assay tox ratio Pb ODA [1]: 102.50
CN1CCN(c2ccc(Nc3ncc(C#N)c(Nc4ccccc4C(N)=O)n3)cc2)CC1.Cl [TCMDC-134116] | – | 76.73 | –
COc1ccc(Nc2ncc(C#N)c(Nc3ccccc3C(N)=O)n2)cc1N1CCN(C)CC1.Cl [TCMDC-134117] | – | 325.76 | –
CNC(=O)c1ccccc1Nc1nc(Nc2ccc(N3CCOCC3)cc2)ncc1Cl.Cl [TCMDC-134144] | – | 9.39 | –
COc1ccc(Nc2ncc(OC)c(Nc3ccccc3C(N)=O)n2)cc1N1CCN(C)CC1.O=CO [TCMDC-134149] | – | 50.00 | –
NCC(NC(=O)c1ccc(-c2c[nH]c3ncccc23)s1)c1ccccc1.O=CO (stereo not shown) [TCMDC-134154] | 16.83 | – | –
COc1ccc(Nc2ncc(Cl)c(Nc3cccnc3C(N)=O)n2)cc1N1CCN(C)CC1.Cl [TCMDC-134163] | – | 29.56 | –
CN1CCN(c2ccc(Nc3ncc(Cl)c(Nc4cccnc4C(N)=O)n3)cc2)CC1.Cl [TCMDC-134164] | – | 20.44 | –
CS(=O)(=O)Cc1cccc(Nc2ncc(Cl)c(Nc3cccnc3C(N)=O)n2)c1.Cl [TCMDC-134166] | – | 3.97 | –
NC(=O)c1ccccc1Nc1nc(Nc2cc[nH]n2)ncc1Cl [TCMDC-134169] | – | 25.69 | –
COc1cc(NC2=NS(=O)(=O)c3cc(Cl)ccc3N2C)cc(OC)c1OC.O=C(O)C(F)(F)F [TCMDC-134208] | 73.96 | – | –
CC(C#N)Cc1ccc(-c2cnc(N)c3cc(-c4ccnc(N)n4)ccc23)cc1 (stereo not shown) [TCMDC-134547] | 6.78 | – | –
COc1ccc2nccc(N3CCC(NCCNCc4ccc5c(n4)NC(=O)CO5)C3)c2n1.Cl (stereo not shown) [TCMDC-134548] | 26.25 | – | –
